Results are given in words; binding and its absence hold for the method and conditions named. A result given as binding can be weak or reduced; the word gives no strength. Tags and fused reporters may be left off the sequences shown.

Test [1] deals with T1, DegU-P (DegU-His6 phosphorylated by DegS-His6 and ATP) (Bacillus subtilis) (UniProt P13800).
T1 sequence (chain, phosphorylated by DegS and ATP (residue not printed)): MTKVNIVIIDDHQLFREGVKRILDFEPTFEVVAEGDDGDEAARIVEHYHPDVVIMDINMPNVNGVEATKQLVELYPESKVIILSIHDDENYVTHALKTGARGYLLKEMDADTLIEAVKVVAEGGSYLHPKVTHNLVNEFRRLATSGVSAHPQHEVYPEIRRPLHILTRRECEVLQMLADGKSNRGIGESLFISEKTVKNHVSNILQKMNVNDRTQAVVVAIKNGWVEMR
Briefly: native gel or EMSA.

Test [2] concerns the target T2, DegU-His6 fusion protein (unphosphorylated) (Bacillus subtilis) (UniProt P13800).
T2 sequence: T1 sequence (chain, phosphorylated by DegS and ATP (residue not printed))
Nature of the test: native gel or EMSA.

For “GST-SwrA fusion protein (Bacillus subtilis)”, the binding entry in test [1] and in test [2] was “binds” throughout.
